The experiment deals with T1, human glucagon-like peptide-1 receptor (GLP1R) with C-terminal 1D4 epitope, purified in nanodiscs (GLP1R-ND) (human), P43220.
T1 chain: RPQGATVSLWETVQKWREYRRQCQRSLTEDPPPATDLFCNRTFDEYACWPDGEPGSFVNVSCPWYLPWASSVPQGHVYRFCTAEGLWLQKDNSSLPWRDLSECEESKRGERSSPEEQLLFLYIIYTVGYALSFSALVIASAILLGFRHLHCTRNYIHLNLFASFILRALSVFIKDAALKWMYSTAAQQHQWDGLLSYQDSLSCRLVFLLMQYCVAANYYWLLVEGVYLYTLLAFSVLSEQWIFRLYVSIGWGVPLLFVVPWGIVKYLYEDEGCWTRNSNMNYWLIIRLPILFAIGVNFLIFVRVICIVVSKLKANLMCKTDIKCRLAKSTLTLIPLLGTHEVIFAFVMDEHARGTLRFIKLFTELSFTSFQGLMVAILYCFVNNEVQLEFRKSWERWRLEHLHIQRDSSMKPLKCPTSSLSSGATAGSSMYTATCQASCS
Put plainly: SDS-PAGE and western blot (SDS-resistant band); HEK293S cells stably transfected with GLP1R, induced; blot with 1D4 antibody; bands at ~50 kDa and ~100 kDa. To be noted: remark: other sources report otherwise. A general note: In western blotting, separated proteins are transferred to a membrane and probed.

No constants are given. Whether binding was seen depends on the method and setting. Some results given as binding are weak or reduced against the parent protein; the word gives no strength. Tags and fused reporters may be left off the sequences shown.

B1: human glucagon-like peptide-1 receptor (GLP1R) with C-terminal 1D4 epitope, purified in nanodiscs (GLP1R-ND), P43220 24-463 (receptor)
chain: RPQGATVSLWETVQKWREYRRQCQRSLTEDPPPATDLFCNRTFDEYACWPDGEPGSFVNVSCPWYLPWASSVPQGHVYRFCTAEGLWLQKDNSSLPWRDLSECEESKRGERSSPEEQLLFLYIIYTVGYALSFSALVIASAILLGFRHLHCTRNYIHLNLFASFILRALSVFIKDAALKWMYSTAAQQHQWDGLLSYQDSLSCRLVFLLMQYCVAANYYWLLVEGVYLYTLLAFSVLSEQWIFRLYVSIGWGVPLLFVVPWGIVKYLYEDEGCWTRNSNMNYWLIIRLPILFAIGVNFLIFVRVICIVVSKLKANLMCKTDIKCRLAKSTLTLIPLLGTHEVIFAFVMDEHARGTLRFIKLFTELSFTSFQGLMVAILYCFVNNEVQLEFRKSWERWRLEHLHIQRDSSMKPLKCPTSSLSSGATAGSSMYTATCQASCS
B1: the binding entry is on record as “binds”.

The record behind these values is publication PMC5469476.
